# Values of other authors, collected in US10525044B2, “Treatment for chemotherapy-induced peripheral neuropathy” (priority 2013, dated 2020).
# For at least one compound, name, drawing or mass did not settle the structure.
# Tested on: oxaliplatin-induced behavioral alterations
# Settings: in vivo; cited from earlier work
smiles,measurement,value
COc1cc(C2Oc3cc([C@H]4Oc5cc(O)cc(O)c5C(=O)[C@@H]4O)ccc3OC2CO)ccc1O (stereo partly shown) [silibinin],antineuropathic effect on oxaliplatin-induced behavioral alterations,about 50%
